At least one structure is not confirmed: it was looked up by name or label, or the drawing left a doubt.
Tests used:
ACS1028-ECs [1] = assay: Cell proliferation assay (EdU labeling) of iPSC-ECs over serial passages; format: cell-based, human; conditions: versus DMSO vehicle control and rapamycin, ML246, Antimycin A or oligomycin
Description: Proliferating cells were labeled with EdU using the Invitrogen Click-iT microplate assay kit (Invitrogen C10214), without the use of the Amplex Ultra red step. Cells were labeled for 24 hours with 10 μM EdU or DMSO as a vehicle control. Cells were fixed and prepared according to the manufacturer's instructions, minus the Amplex Ultra red labeling. Hoechst 33342 was added at 5 μg/mL (Invitrogen H1399), and labeled cells were imaged on a Zeiss inverted fluorescence microscope. Four tiled images at 10× magnification were collected per each well of 3 biological replicates per condition and stitched together as a single image per well for analysis. EdU-labeled and total nuclei were counted in Fiji.
Experiments were conducted to determine whether inducing autophagy in iPSC-ECs overcomes the premature senescence phenomenon. […] Due to the loss of proliferating cells in the control culture, the experiment was terminated at passage 3.

ACS1028-ECs [2] = assay: Cell survival of purified iPSC-ECs by light microscopy cell counting / Trypan blue; format: cell-based; conditions: at all tested concentrations
Description: There were three biological replicates for each group in each experiment, unless otherwise specified. For MitoTracker quantification, total fluorescence signal for the area was measured in Fiji and divided by the number of nuclei present. This was done for 5 fields of view (technical replicates) and averaged to generate a data point for a given biological replicate. For the DAF-FM reduction measurements for NO production, a given experimental condition was plated into 3 wells of a 96 well plate. For TEM analysis, each biological sample was imaged in a minimum of 5 locations. Three representative images from each condition were utilized for quantifying autolysosomes per high power field (HPF) in each of two separate experiments. For light microscopy images, cells were manually counted from three distinct areas of a given experimental condition on two separate occasions. All data wereanalyzed with one-way ANOVA with a post-hoc Tukey test in IBM SPSS Statistics for Macintosh, version 27 (IBM Corp., Armonk, N.Y., USA). […]
To assess whether the effect of Rg2 on proliferation is mediated through autophagy, ACS1028-ECs was administered with 200 μM Rg2 and SBI-0206965 to block ULK1 kinase at varying concentrations. Cell survival was assessed by counting the number of cells per high power field by light microscopy, which diminished over serial passages in the DMSO-treated vehicle-control condition.

Structure (SMILES): CO[C@H]1C[C@@H]2CC[C@@H](C)[C@@](O)(O2)C(=O)C(=O)N2CCCC[C@H]2C(=O)O[C@H]([C@H](C)C[C@@H]2CC[C@@H](O)[C@H](OC)C2)CC(=O)[C@H](C)/C=C(\C)[C@@H](O)[C@@H](OC)C(=O)[C@H](C)C[C@H](C)/C=C/C=C/C=C/1C [Rapamycin]
- proliferation (EdU labeled cells) (ACS1028-ECs [1]): did not produce any beneficial results to proliferation
- cell survival (cells available for passaging) (ACS1028-ECs [2]): insufficient number of cells for passaging
